Consider 1 molecule from patent publication US9109003B2, “Extraction method for Ilex kudingcha C. J. Tseng leaves, total saponins and use thereof” (Peking University, priority 2011, dated 2015).

The structures appear in SMILES notation.

This assay has as its system ApoE−/− mice. The assay is described as follows: Plasma malondialdehyde (MDA) levels of ApoE−/− mice fed high fat diet. Conditions: atorvastatin 50 mg/kg/d. The assay is classed as in vivo.

`CC(C)c1c(C(=O)Nc2ccccc2)c(-c2ccccc2)c(-c2ccc(F)cc2)n1CC[C@@H](O)C[C@@H](O)CC(=O)O` [atorvastatin]: under “since second week (W2) until end of administration, total saponins 300 mg/kg/d”, the “increase in plasma MDA levels compared with group HG” value was “significantly inhibited”. In addition, the “plasma MDA level” value (sixth week (W6) of administration) was determined as 16.5 nmol/L. Also, the “plasma MDA level at W6 relative to before administration” value (sixth week (W6)) is reported as approximately 1.5 times.
